Experimental data published in publication PMC11253643.
Results are given in words; binding and its absence hold for the method and conditions named. A result given as binding can be weak or reduced; the word gives no strength.

B1: putative T4SS effector 19100 (ORF RS19100), putative lipase (protein, UniProt B2FUP9 1-494)
chain: MRPLTNAALANAAYSPPSHPAPGDKESLRVDGEDFEVLGRRDAVSGYQGVVYRNIKTNEIIIAHRGTEFDRQAMLDGGVDAAMVSARVNAQIDDALVLTKQAIKQAEENGYGPVYVTGHSLGGALAQITAYHYNLPGDAFNPYGAAGLAYRLPEGQPANAAPFTNHVMAGDLVSAAGPHYGKVEMYALPKELGVLRDAEQGQRIASLVSLGMKSGHVMSAAVAVQLGDSHRMVHFIDRMTDKGPVQSVLDDPGARITDAEDLRRIAEYRKDIHQLRLGATVLVGGGPGLLRDGVNYLLGTGEAGAYARREAEAVQHAESALKAGERPVQEATEKGSPSLSNPGFAPKSPLQESIESTLDKAGLDPRKEGHPDHALYRQIRDGVSAVDARHGRGFDETSERVTAGLLATAKRSGLERVDHVVLGNPPSDGSGPRMFVVQGALDNPAHLRASIAVSEAVNTPVDQSLAKVEQISQAQQVAQQEQTQEQTRTAMRMG
B2: putative T4SS effector 02400 (ORF RS02400), hypothetical protein (protein, UniProt B2FKX6 1-143)
chain: MGSPTTHRYRSMAMAEITPNHPDYGLNQQVRQGVAALDAQHGRAFDQTSERLTASLTVLAREQGLQQVDHVLVSNATAQHPAGHNVFVVQGDPANPAHLRAMMPTAVAAQTPVEQSMQKLGLGVQPQVEVQAHEMQHPAPRLG
B3: putative T4SS effector 14405 (ORF RS14405), hypothetical protein (protein, UniProt B2FJJ5 1-440)
chain: MSGLTERDLSVLGSYARDGNRELYWNYLSQLPGADGYGTLALGVVRNDSLPGRVANTYAQDYAKSQQEEGSRFPNAQLTERQWESFGQTLLERDLELRQQWMNERRPDLALNLPGKDVMLAHDRAFERHELDPNCWTPRVLLQAAEQKSGPAKLEQIWTNMLNNDYAGGPRVGNTSVDAISQMGWTKGGQYLTRLSVLEATQALEGRSAVDPNVIGGNSYYAMYFEADRKWASISAGGGHMSLREITDPSRIAELNDAREVRLERLEKRTQFHPDDPYRTITRSPLTAAVDDVADPSQAPTRLADIGPGHREYTLLQQVREGVAAIDASAGRTHDENSERLVASVMALARRNQLERADHVLLSAQTADAPAGRNVFVVQGEMTDPAHLRASMPTDIAVQTPVAQSLQQMKAVDLDRQQTAAQRQQEIDVQARENHAMRMG

Molecular target: S. maltophilia VirD4, T4SS coupling protein (S. maltophilia K279a)
Assay: two-hybrid; BACTH in E. coli BTH101: bait T18-VirD4 (high-copy pUT18C), prey T25-effector (low-copy pKT25); 0.5 mM IPTG, ~20 h at 30°C; β-galactosidase (ONPG) in Miller units; positive = at least four times the negative control

**Q.** For B1, which binding is on record?
**A.** binds

**Q.** B2 was tested. Which binding did it give?
**A.** binds

**Q.** Which binding does the source give for B3 here?
**A.** binds
